Laboratory results: PMC6853375

Chains of the proteins cited; added tags and fusions are not shown.
UniProt P06748: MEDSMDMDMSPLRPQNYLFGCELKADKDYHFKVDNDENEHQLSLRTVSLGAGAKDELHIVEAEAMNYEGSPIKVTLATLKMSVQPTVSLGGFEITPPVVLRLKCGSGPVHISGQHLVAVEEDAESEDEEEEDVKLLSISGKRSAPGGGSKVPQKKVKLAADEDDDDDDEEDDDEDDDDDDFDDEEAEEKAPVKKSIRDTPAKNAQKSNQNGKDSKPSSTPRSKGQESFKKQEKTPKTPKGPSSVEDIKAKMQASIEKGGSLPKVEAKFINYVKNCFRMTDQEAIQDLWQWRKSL
UniProt Q86U86: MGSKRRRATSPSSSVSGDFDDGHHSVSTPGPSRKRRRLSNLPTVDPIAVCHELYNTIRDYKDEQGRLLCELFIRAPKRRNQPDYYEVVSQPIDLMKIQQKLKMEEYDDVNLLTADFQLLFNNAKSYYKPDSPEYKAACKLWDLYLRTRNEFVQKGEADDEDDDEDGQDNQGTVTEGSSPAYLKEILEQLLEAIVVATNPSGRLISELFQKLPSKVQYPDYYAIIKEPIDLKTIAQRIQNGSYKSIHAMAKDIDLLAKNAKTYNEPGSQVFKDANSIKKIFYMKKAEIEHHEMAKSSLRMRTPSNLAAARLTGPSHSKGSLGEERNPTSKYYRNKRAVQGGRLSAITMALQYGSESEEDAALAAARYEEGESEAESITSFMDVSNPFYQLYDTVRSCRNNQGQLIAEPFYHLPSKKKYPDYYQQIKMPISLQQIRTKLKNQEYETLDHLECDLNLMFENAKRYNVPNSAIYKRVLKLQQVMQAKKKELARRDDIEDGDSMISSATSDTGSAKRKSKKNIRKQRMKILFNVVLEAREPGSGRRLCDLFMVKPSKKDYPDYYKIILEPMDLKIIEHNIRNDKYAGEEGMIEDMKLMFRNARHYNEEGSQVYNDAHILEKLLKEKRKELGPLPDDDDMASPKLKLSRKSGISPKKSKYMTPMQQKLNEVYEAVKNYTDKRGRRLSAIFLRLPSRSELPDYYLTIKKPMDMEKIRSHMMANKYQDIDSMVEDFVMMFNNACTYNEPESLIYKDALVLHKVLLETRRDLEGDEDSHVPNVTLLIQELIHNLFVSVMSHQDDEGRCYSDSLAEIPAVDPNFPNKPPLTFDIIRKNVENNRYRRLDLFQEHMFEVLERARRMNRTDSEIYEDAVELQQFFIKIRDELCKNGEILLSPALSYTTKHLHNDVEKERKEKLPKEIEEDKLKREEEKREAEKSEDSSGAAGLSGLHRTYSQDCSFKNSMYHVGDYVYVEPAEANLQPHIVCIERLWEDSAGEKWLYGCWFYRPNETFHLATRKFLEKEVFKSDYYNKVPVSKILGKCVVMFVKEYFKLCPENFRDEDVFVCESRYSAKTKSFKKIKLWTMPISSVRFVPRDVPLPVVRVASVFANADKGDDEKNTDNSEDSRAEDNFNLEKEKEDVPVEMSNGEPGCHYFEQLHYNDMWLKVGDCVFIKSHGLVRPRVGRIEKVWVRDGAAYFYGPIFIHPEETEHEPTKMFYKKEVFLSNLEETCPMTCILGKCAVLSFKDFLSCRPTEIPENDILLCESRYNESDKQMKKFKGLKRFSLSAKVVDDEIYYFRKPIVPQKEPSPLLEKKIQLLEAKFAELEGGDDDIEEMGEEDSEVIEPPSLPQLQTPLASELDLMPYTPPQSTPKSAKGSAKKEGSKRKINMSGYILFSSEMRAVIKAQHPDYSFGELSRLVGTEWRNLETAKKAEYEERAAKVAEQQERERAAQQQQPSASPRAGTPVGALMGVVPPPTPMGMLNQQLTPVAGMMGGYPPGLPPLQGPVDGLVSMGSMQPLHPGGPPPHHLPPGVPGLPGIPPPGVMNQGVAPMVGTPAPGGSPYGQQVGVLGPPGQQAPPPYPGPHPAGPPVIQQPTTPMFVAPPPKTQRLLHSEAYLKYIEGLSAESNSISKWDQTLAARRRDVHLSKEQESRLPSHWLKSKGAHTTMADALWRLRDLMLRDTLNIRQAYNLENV
UniProt Q09028: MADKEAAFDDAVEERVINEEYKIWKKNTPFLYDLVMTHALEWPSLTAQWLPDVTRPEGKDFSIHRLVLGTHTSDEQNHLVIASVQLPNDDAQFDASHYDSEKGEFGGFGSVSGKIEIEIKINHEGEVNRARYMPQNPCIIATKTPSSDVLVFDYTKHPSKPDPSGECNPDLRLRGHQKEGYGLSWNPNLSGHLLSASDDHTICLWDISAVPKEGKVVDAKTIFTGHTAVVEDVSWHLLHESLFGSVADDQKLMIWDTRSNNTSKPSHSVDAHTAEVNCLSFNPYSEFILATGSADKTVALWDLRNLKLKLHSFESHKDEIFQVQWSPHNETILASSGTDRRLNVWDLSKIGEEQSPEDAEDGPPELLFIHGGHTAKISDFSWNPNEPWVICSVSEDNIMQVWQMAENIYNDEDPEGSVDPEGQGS
UniProt O60264: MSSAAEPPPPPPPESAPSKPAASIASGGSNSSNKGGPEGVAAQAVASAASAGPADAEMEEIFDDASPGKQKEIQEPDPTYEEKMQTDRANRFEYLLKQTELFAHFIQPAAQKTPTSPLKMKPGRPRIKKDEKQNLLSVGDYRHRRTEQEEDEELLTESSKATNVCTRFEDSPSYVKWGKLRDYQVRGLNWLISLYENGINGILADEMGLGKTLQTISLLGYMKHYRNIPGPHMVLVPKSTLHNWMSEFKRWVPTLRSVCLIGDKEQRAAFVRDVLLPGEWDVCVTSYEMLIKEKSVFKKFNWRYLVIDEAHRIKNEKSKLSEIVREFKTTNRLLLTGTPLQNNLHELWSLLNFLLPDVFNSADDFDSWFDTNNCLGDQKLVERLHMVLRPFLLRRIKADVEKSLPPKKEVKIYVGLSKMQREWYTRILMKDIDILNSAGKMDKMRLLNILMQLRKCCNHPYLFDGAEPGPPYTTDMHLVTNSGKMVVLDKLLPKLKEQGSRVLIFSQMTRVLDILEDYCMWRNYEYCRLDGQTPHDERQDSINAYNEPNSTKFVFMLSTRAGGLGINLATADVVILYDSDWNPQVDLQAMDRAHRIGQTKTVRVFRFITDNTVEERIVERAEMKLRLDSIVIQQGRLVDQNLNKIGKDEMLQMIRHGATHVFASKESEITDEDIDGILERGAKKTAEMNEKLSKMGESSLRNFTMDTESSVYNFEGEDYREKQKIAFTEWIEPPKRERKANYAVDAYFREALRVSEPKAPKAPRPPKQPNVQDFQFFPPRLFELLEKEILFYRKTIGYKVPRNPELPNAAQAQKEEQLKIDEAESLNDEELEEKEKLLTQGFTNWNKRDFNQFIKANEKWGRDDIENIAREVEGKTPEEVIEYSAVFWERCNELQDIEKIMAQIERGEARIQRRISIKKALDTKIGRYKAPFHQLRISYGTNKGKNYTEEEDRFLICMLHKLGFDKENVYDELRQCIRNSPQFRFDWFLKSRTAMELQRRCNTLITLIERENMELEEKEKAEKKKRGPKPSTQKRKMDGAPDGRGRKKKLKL
UniProt Q9NPI1: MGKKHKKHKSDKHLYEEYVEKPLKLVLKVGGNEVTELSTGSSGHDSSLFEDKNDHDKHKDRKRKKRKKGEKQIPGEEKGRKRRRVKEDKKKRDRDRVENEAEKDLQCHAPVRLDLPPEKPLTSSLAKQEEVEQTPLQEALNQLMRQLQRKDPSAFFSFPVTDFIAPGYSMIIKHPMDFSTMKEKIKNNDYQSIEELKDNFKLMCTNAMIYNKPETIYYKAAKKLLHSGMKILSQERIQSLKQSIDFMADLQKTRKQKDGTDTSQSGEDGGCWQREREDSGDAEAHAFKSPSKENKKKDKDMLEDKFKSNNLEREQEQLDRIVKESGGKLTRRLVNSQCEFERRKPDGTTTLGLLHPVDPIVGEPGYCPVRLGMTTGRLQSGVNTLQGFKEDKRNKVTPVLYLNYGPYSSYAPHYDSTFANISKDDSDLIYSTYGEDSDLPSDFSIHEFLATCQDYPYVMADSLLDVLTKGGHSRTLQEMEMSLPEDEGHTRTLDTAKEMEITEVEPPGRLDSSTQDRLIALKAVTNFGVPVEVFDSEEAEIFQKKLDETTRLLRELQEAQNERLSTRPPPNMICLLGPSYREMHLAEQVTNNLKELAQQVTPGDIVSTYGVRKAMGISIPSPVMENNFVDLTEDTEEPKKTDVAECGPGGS
UniProt Q12873: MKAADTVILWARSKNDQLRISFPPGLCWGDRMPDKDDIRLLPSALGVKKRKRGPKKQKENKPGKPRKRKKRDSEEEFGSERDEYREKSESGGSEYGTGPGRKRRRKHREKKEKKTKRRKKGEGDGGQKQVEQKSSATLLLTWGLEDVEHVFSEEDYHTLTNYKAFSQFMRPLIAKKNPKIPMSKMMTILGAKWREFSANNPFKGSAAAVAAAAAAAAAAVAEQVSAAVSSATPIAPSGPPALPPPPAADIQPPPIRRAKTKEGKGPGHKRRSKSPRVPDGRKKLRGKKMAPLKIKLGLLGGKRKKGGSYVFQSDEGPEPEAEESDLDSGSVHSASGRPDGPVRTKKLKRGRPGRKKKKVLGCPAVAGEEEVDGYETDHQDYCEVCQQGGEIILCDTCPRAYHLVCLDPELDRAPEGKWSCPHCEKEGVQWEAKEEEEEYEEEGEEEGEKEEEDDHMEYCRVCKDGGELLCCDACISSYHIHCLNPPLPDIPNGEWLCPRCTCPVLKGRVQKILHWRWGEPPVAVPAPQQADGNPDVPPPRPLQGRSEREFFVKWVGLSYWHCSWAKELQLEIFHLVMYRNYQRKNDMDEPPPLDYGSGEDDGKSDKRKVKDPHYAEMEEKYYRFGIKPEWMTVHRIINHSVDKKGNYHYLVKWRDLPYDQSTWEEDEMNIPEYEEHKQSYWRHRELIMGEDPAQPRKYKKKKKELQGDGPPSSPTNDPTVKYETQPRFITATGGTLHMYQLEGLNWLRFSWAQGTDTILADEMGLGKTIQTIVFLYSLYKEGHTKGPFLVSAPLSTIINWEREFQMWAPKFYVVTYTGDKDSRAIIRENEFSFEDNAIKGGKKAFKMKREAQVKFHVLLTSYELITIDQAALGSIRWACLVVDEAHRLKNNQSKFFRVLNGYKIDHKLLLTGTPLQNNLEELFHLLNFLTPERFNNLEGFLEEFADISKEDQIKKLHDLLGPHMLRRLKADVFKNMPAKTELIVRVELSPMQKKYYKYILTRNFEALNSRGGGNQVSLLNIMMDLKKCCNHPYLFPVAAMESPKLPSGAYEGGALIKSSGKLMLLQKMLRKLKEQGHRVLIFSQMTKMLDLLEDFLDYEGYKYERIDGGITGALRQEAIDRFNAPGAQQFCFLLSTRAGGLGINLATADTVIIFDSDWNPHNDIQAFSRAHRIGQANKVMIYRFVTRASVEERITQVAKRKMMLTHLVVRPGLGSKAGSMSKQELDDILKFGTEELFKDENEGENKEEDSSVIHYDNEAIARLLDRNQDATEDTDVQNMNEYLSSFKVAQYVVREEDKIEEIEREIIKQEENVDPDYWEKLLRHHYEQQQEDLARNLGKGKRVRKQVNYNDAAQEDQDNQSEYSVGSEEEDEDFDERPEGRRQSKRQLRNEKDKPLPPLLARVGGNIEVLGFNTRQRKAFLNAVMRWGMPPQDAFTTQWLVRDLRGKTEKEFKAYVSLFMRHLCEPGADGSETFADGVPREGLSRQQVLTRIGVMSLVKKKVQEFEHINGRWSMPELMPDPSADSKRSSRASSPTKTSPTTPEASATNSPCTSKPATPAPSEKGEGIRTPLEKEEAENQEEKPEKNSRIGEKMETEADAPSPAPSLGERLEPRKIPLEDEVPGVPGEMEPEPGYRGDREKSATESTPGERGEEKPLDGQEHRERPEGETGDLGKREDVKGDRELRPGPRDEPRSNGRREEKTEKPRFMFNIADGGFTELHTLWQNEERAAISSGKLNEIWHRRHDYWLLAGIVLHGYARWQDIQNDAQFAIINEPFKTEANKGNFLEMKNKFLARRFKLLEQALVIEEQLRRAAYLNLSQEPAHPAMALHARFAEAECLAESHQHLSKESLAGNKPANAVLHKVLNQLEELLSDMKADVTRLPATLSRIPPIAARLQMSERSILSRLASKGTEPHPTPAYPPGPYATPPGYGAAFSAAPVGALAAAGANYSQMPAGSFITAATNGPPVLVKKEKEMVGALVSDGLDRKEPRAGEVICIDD
UniProt Q12824: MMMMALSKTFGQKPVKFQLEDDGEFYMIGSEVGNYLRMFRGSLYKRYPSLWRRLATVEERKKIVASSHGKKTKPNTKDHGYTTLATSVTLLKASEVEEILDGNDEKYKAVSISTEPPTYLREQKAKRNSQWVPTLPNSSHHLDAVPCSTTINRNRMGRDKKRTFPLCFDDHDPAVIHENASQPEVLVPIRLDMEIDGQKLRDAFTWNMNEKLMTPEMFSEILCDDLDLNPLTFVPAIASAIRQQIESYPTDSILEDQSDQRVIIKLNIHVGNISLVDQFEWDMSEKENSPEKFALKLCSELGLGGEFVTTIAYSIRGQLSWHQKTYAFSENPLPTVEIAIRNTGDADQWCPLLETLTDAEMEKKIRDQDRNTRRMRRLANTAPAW

Experiments:
Flag-HA-NPM [1] = target: Flag-HA-NPM (UniProt P06748); assay: affinity purification with mass spectrometry; Flag-HA sequential immunoaffinity purification (TAP-Tag) from 20 mg nuclear lysate of K562 MOCK, NPM or NPM-MLF1 cells; elution with Flag or HA peptides; LC-MS/MS
Flag-HA-NPM [2] = target: Flag-HA-NPM (UniProt P06748); assay: affinity purification with mass spectrometry; Flag immunoaffinity purification of FH-NPM or FH-NPM-MLF1 from K562 nuclear extracts, then size exclusion chromatography (Superose 6); fractions from 2000 kDa to 600 kDa regrouped in three peaks; LC-MS/MS

Molecule | binding (Flag-HA-NPM [1]) | binding (Flag-HA-NPM [2])
BAF180 (PBRM1) (from UniProt Q86U86 1-1689) | binds | binds
CHD4 (from UniProt Q14839 1-1912) |  | binds
DDX21 (from UniProt Q9NR30 1-783) | binds | 
HDAC1 (from UniProt Q13547 1-482) | binds | binds
RBBP4 (from UniProt Q09028 1-425) |  | binds
SMARCA1 (SNF2L) (from UniProt P28370 1-1042) | binds | binds
SMARCA4 (BRG1) (from UniProt P51532 1-1647) | binds | binds
SMARCA5 (SNF2H) (from UniProt O60264 1-1052) | binds | binds
SMARCC1 (BAF155) (from UniProt Q92922 1-1105) | binds | 
SMARCD2 (BAF60B) (from UniProt Q92925 1-531) | binds | binds
SMARCE1 (BAF57) (from UniProt Q969G3 1-411) |  | binds
MYBBP1A (protein, UniProt Q9BQG0 1-1328) MESRDPAQPMSPGEATQSGARPADRYGLLKHSREFLDFFWDIAKPEQETRLAATEKLLEYLRGRPKGSEMKYALKRLITGLGVGRETARPCYSLALAQLLQSFEDLPLCSILQQIQEKYDLHQVKKAMLRPALFANLFGVLALFQSGRLVKDQEALMKSVKLLQALAQYQNHLQEQPRKALVDILSEVSKATLQEILPEVLKADLNIILSSPEQLELFLLAQQKVPSKLKKLVGSVNLFSDENVPRLVNVLKMAASSVKKDRKLPAIALDLLRLALKEDKFPRFWKEVVEQGLLKMQFWPASYLCFRLLGAALPLLTKEQLHLVMQGDVIRHYGEHVCTAKLPKQFKFAPEMDDYVGTFLEGCQDDPERQLAVLVAFSSVTNQGLPVTPTFWRVVRFLSPPALQGYVAWLRAMFLQPDLDSLVDFSTNNQKKAQDSSLHMPERAVFRLRKWIIFRLVSIVDSLHLEMEEALTEQVARFCLFHSFFVTKKPTSQIPETKHPFSFPLENQAREAVSSAFFSLLQTLSTQFKQAPGQTQGGQPWTYHLVQFADLLLNHSHNVTTVTPFTAQQRQAWDRMLQTLKELEAHSAEARAAAFQHLLLLVGIHLLKSPAESCDLLGDIQTCIRKSLGEKPRRSRTKTIDPQEPPWVEVLVEILLALLAQPSHLMRQVARSVFGHICSHLTPRALQLILDVLNPETSEDENDRVVVTDDSDERRLKGAEDKSEEGEDNRSSESEEESEGEESEEEERDGDVDQGFREQLMTVLQAGKALGGEDSENEEELGDEAMMALDQSLASLFAEQKLRIQARRDEKNKLQKEKALRRDFQIRVLDLVEVLVTKQPENALVLELLEPLLSIIRRSLRSSSSKQEQDLLHKTARIFTHHLCRARRYCHDLGERAGALHAQVERLVQQAGRQPDSPTALYHFNASLYLLRVLKGNTAEGCVHETQEKQKAGTDPSHMPTGPQAASCLDLNLVTRVYSTALSSFLTKRNSPLTVPMFLSLFSRHPVLCQSLLPILVQHITGPVRPRHQACLLLQKTLSMREVRSCFEDPEWKQLMGQVLAKVTENLRVLGEAQTKAQHQQALSSLELLNVLFRTCKHEKLTLDLTVLLGVLQGQQQSLQQGAHSTGSSRLHDLYWQAMKTLGVQRPKLEKKDAKEIPSATQSPISKKRKKKGFLPETKKRKKRKSEDGTPAEDGTPAATGGSQPPSMGRKKRNRTKAKVPAQANGTPTTKSPAPGAPTRSPSTPAKSPKLQKKNQKPSQVNGAPGSPTEPAGQKQHQKALPKKGVLGKSPLSALARKKARLSLVIRSPSLLQSGAKKKAQVRKAGKP | binds | 
WSTF (BAZ1B) (protein, UniProt Q9UIG0 1-1483) MAPLLGRKPFPLVKPLPGEEPLFTIPHTQEAFRTREEYEARLERYSERIWTCKSTGSSQLTHKEAWEEEQEVAELLKEEFPAWYEKLVLEMVHHNTASLEKLVDTAWLEIMTKYAVGEECDFEVGKEKMLKVKIVKIHPLEKVDEEATEKKSDGACDSPSSDKENSSQIAQDHQKKETVVKEDEGRRESINDRARRSPRKLPTSLKKGERKWAPPKFLPHKYDVKLQNEDKIISNVPADSLIRTERPPNKEIVRYFIRHNALRAGTGENAPWVVEDELVKKYSLPSKFSDFLLDPYKYMTLNPSTKRKNTGSPDRKPSKKSKTDNSSLSSPLNPKLWCHVHLKKSLSGSPLKVKNSKNSKSPEEHLEEMMKMMSPNKLHTNFHIPKKGPPAKKPGKHSDKPLKAKGRSKGILNGQKSTGNSKSPKKGLKTPKTKMKQMTLLDMAKGTQKMTRAPRNSGGTPRTSSKPHKHLPPAALHLIAYYKENKDREDKRSALSCVISKTARLLSSEDRARLPEELRSLVQKRYELLEHKKRWASMSEEQRKEYLKKKREELKKKLKEKAKERREKEMLERLEKQKRYEDQELTGKNLPAFRLVDTPEGLPNTLFGDVAMVVEFLSCYSGLLLPDAQYPITAVSLMEALSADKGGFLYLNRVLVILLQTLLQDEIAEDYGELGMKLSEIPLTLHSVSELVRLCLRRSDVQEESEGSDTDDNKDSAAFEDNEVQDEFLEKLETSEFFELTSEEKLQILTALCHRILMTYSVQDHMETRQQMSAELWKERLAVLKEENDKKRAEKQKRKEMEAKNKENGKVENGLGKTDRKKEIVKFEPQVDTEAEDMISAVKSRRLLAIQAKKEREIQEREMKVKLERQAEEERIRKHKAAAEKAFQEGIAKAKLVMRRTPIGTDRNHNRYWLFSDEVPGLFIEKGWVHDSIDYRFNHHCKDHTVSGDEDYCPRSKKANLGKNASMNTQHGTATEVAVETTTPKQGQNLWFLCDSQKELDELLNCLHPQGIRESQLKERLEKRYQDIIHSIHLARKPNLGLKSCDGNQELLNFLRSDLIEVATRLQKGGLGYVEETSEFEARVISLEKLKDFGECVIALQASVIKKFLQGFMAPKQKRRKLQSEDSAKTEEVDEEKKMVEEAKVASALEKWKTAIREAQTFSRMHVLLGMLDACIKWDMSAENARCKVCRKKGEDDKLILCDECNKAFHLFCLRPALYEVPDGEWQCPACQPATARRNSRGRNYTEESASEDSEDDESDEEEEEEEEEEEEEDYEVAGLRLRPRKTIRGKHSVIPPAARSGRRPGKKPHSTRRSQPKAPPVDDAEVDELVLQTKRSSRRQSLELQKCEEILHKIVKYRFSWPFREPVTRDEAEDYYDVITHPMDFQTVQNKCSCGSYRSVQEFLTDMKQVFTNAEVYNCRGSHVLSCMVKTEQCLVALLHKHLPGHPYVRRKRKKFPDRLAEDEGDSEPEAVGQSRGRRQKK | binds | binds
DEK (protein, UniProt P35659 1-375) MSASAPAAEGEGTPTQPASEKEPEMPGPREESEEEEDEDDEEEEEEEKEKSLIVEGKREKKKVERLTMQVSSLQREPFTIAQGKGQKLCEIERIHFFLSKKKTDELRNLHKLLYNRPGTVSSLKKNVGQFSGFPFEKGSVQYKKKEEMLKKFRNAMLKSICEVLDLERSGVNSELVKRILNFLMHPKPSGKPLPKSKKTCSKGSKKERNSSGMARKAKRTKCPEILSDESSSDEDEKKNKEESSDDEDKESEEEPPKKTAKREKPKQKATSKSKKSVKSANVKKADSSTTKKNQNSSKKESESEDSSDDEPLIKKLKKPPTDEELKETIKKLLASANLEEVTMKQICKKVYENYPTYDLTERKDFIKTTVKELIS | binds | 

Other lines, results leading:

binding (Flag-HA-NPM [1]) | binding (Flag-HA-NPM [2]) | Molecule
binds |  | ACTL6A (from UniProt O96019 1-429)
 | binds | BRD7 (from UniProt Q9NPI1 1-651)
 | binds | CHD3 (from UniProt Q12873 1-2000)
 | binds | HDAC2 (from UniProt Q92769 1-488)
 | binds | SMARCA2 (BRM) (from UniProt P51531 1-1590)
binds | binds | SMARCB1 (SNF5) (from UniProt Q12824 1-385)
binds | binds | SMARCC2 (BAF170) (from UniProt Q8TAQ2 1-1214)
binds | binds | SMARCD1 (BAF60A) (from UniProt Q96GM5 1-515)
 | binds | SMARCD3 (from UniProt Q6STE5 1-483)

No constants are given. Whether binding was seen depends on the method and setting. In cells and extracts the contact can be indirect. A yes stands for co-enrichment or nearness to the bait. Other partners may have been found.
